Reference: US4497802A (Eli Lilly and Company, priority 1983, dated 1985)

Assay: peptide synthesis
Settings: late stage modification step

Substance: N-[N-(tert-butoxycarbonyl)-L-phenylalanyl]-A35512B
- step yield: 67% yield
